Assay results from the M2OR odorant receptor database.
Changes are numbered by the printed parent chain. The list shows a part of the results, in another mix than the full data. Calls are pooled over several reports, among them a noisy single-well screen. This is one part of the list.

Chains of the proteins cited; added tags and fusions are not shown. Chains listed by the source or under a name are the forms on record and can include a tag or linker.
OR8B3, as listed by the source: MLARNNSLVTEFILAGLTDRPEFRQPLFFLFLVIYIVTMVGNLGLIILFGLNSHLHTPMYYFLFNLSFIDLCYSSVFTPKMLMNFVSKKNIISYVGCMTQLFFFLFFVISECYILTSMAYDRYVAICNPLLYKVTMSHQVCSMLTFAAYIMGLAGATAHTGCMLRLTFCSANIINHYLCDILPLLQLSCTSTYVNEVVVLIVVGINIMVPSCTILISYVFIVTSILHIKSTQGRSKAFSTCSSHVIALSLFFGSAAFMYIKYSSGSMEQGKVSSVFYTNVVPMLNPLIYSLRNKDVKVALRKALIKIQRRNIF
OR8B4, as listed by the source: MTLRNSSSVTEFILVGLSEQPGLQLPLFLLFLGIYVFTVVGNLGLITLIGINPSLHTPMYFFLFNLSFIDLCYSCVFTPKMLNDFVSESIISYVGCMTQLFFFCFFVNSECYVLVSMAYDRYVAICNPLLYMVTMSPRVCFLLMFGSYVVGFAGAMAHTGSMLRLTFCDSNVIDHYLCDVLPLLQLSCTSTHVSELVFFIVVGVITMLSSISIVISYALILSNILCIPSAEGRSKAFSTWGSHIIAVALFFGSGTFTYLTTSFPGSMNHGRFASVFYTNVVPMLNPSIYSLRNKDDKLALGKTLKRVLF

Experiments:
Conditions in all cases: stereoisomer not certain
OR8A1 = tested on: T1, OR8A1
T1 sequence (whole entry): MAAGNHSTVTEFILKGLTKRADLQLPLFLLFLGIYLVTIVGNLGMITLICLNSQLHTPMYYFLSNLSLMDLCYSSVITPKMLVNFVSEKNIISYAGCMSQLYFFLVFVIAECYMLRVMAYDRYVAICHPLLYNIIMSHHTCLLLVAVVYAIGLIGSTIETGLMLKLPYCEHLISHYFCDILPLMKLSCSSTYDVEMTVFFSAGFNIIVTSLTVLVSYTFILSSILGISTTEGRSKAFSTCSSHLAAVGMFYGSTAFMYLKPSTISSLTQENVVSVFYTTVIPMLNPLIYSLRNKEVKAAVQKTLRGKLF
Outline: (§1)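 Whether a receptor–molecule pair is responsive (active) rests on the original authors' judgment that its measured signal was statistically different from baseline. Pairs without that judgment are non-responsive (inactive). Sources used varied assay methods, commonly transient luciferase assays in mammalian cell lines.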

OR8B12 (Homo sapiens) = target: T2, OR8B12 (Homo sapiens) (UniProt Q8NGG6)
T2 sequence (whole entry): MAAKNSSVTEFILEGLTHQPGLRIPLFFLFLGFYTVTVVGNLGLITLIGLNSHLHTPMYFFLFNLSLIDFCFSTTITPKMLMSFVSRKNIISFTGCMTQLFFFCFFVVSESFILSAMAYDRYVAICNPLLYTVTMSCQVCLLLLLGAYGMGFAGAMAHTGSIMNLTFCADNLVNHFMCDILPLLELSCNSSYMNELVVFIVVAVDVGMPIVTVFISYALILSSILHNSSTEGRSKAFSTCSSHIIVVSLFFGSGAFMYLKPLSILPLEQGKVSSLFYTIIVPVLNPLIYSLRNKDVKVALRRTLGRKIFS
Outline: as §1

OR8B2 (Homo sapiens) = target: T3, OR8B2 (Homo sapiens) (UniProt Q96RD0)
T3 sequence (whole entry): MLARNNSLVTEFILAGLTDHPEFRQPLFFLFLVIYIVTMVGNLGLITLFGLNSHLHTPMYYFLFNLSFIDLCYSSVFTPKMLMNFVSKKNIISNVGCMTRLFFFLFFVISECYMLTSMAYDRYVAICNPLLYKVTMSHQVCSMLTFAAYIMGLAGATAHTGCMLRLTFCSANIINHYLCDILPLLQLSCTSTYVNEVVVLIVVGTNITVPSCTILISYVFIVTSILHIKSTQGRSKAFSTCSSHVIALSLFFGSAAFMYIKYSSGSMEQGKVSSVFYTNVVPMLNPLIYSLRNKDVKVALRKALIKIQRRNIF
Outline: as §1

OR8B3 = tested on: T4, OR8B3
T4 sequence (whole entry): T3 sequence (whole entry) with H20R, T47I, N94Y, R100Q, M114I, T205I, T208M
Outline: as §1

OR8B4 [1] = tested on: T5, OR8B4
T5 sequence (whole entry): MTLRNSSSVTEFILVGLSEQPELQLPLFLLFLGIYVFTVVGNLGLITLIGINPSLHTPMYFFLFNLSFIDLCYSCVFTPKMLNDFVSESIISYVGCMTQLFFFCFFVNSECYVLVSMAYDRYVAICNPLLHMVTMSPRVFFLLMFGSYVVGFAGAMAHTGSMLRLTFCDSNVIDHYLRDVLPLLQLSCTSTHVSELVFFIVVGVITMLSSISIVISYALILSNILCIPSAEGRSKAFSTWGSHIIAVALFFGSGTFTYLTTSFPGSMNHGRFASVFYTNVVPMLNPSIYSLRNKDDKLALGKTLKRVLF
Outline: as §1

OR8B4 [2] = tested on: T6, OR8B4; remark: listed apart in the source
T6 sequence (whole entry): T5 sequence (whole entry) with E22G, H131Y, F140C, R178C
Outline: as §1

OR8B8 (Homo sapiens) = target: T7, OR8B8 (Homo sapiens) (UniProt Q15620)
T7 sequence (whole entry): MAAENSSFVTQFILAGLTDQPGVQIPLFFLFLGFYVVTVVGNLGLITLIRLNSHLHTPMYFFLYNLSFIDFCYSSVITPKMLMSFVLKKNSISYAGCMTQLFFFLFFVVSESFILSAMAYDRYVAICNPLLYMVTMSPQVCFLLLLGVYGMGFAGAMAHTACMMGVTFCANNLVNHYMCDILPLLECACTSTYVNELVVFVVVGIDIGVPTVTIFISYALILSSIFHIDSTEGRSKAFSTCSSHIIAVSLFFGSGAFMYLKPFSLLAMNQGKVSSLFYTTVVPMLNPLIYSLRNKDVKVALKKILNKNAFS
Outline: as §1

OR8B8 = tested on: T8, OR8B8
T8 sequence (whole entry): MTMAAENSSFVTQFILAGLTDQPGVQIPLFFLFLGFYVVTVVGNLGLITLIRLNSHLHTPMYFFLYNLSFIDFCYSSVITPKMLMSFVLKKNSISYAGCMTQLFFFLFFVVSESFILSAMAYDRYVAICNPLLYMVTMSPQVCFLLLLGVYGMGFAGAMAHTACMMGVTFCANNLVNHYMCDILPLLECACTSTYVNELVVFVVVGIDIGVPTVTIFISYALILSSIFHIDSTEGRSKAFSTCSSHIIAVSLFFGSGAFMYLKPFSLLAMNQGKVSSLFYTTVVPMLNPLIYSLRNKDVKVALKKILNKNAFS
Outline: as §1

OR8D1 (Homo sapiens) = target: T9, OR8D1 (Homo sapiens) (UniProt Q8WZ84)
T9 sequence (whole entry): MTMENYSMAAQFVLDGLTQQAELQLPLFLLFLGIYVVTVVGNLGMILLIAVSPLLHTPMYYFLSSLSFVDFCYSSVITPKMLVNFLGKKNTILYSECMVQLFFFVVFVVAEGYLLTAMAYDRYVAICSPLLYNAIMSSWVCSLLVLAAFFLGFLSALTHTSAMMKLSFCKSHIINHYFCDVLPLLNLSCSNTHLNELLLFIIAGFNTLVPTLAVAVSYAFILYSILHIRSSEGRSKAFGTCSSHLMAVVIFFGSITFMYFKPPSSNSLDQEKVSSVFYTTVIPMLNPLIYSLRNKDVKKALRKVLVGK
Outline: as §1

OR8D2 (Homo sapiens) = target: T10, OR8D2 (Homo sapiens) (UniProt Q9GZM6)
T10 sequence (whole entry): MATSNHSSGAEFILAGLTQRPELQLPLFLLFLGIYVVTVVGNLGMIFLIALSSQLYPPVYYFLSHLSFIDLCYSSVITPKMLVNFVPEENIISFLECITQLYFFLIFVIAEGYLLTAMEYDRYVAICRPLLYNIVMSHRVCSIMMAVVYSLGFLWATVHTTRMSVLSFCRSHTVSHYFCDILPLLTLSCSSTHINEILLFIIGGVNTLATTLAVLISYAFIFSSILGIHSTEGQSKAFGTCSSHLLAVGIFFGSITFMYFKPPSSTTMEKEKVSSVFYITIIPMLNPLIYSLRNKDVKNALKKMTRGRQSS
Outline: as §1

OR8D4 = tested on: T11, OR8D4
T11 sequence (whole entry): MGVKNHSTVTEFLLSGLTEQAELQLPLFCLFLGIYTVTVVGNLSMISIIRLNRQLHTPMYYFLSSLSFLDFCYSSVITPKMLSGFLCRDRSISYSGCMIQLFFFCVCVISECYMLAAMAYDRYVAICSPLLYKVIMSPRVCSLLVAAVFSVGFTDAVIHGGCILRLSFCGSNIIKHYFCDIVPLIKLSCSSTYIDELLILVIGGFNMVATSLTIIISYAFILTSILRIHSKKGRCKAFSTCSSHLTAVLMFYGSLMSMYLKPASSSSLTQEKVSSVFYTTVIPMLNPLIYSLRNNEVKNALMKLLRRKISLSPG
Outline: as §1

OR8G1 (Homo sapiens) = target: T12, OR8G1 (Homo sapiens) (UniProt Q15617)
T12 sequence (whole entry): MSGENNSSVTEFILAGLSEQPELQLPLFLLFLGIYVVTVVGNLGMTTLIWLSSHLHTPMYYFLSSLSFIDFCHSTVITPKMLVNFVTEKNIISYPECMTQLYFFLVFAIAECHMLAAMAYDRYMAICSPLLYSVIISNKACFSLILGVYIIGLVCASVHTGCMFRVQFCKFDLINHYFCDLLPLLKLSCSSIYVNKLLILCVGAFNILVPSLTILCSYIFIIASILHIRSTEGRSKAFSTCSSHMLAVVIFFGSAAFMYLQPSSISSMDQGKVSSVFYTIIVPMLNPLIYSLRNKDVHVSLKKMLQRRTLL
Outline: as §1

OR8G5 (Homo sapiens) = target: T13, OR8G5 (Homo sapiens) (UniProt Q8NG78)
T13 sequence (whole entry): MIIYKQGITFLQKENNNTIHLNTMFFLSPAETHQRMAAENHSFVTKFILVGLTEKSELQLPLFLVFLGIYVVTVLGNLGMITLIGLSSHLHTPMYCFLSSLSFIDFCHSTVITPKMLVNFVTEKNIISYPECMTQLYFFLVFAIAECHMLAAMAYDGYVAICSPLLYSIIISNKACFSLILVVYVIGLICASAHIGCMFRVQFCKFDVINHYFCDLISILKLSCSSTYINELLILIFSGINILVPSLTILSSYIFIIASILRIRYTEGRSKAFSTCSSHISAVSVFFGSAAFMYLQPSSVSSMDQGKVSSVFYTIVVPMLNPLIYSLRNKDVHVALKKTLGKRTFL
Outline: as §1

OR8G5 = tested on: T14, OR8G5
T14 sequence (whole entry): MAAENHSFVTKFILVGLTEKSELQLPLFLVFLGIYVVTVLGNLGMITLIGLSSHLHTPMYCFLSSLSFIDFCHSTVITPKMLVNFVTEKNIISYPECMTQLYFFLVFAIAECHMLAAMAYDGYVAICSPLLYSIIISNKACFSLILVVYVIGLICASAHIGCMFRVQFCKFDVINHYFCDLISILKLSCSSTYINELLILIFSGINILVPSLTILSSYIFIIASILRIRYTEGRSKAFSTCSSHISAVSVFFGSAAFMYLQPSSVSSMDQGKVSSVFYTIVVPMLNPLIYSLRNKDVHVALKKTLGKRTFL
Outline: as §1

OR8H1 (Homo sapiens) = target: T15, OR8H1 (Homo sapiens) (UniProt Q8NGG4)
T15 sequence (whole entry): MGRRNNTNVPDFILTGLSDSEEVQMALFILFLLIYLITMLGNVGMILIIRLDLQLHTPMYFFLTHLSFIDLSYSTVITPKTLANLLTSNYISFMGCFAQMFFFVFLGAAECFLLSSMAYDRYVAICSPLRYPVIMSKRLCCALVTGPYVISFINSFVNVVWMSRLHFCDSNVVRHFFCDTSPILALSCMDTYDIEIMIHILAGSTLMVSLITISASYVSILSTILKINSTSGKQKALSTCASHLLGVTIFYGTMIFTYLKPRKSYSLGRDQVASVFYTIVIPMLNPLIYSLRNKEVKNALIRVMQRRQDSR
Outline: as §1

OR8H2 = tested on: T16, OR8H2
T16 sequence (whole entry): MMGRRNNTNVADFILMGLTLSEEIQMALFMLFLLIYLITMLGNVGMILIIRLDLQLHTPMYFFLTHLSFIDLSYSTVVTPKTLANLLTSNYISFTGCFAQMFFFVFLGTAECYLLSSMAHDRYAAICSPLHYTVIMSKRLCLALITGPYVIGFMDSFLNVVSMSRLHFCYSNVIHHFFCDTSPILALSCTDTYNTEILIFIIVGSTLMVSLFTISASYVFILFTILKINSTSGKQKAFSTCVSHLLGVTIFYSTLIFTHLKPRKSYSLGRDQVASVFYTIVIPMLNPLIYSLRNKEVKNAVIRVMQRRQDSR
Outline: as §1
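Also: active if original authors judged signal statistically different from baseline.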

Structure (SMILES)	odorant receptor agonist call (OR8A1)	odorant receptor agonist call (OR8B12 (Homo sapiens))	odorant receptor agonist call (OR8B2 (Homo sapiens))	odorant receptor agonist call (OR8B3)	odorant receptor agonist call (OR8B4 [1])	odorant receptor agonist call (OR8B4 [2])	odorant receptor agonist call (OR8B8 (Homo sapiens))	odorant receptor agonist call (OR8B8)	odorant receptor agonist call (OR8D1 (Homo sapiens))	odorant receptor agonist call (OR8D2 (Homo sapiens))	odorant receptor agonist call (OR8D4)	odorant receptor agonist call (OR8G1 (Homo sapiens))	odorant receptor agonist call (OR8G5 (Homo sapiens))	odorant receptor agonist call (OR8G5)	odorant receptor agonist call (OR8H1 (Homo sapiens))	odorant receptor agonist call (OR8H2)
CCC1(O)C2(C)CCC(C2)C1(C)C (stereo unspecified)	inactive	inactive	inactive	inactive	inactive	inactive	inactive	inactive	inactive	inactive	inactive	inactive	inactive	inactive	inactive	inactive
COc1cc(C=O)ccc1O	inactive	inactive	inactive	inactive	inactive	inactive	inactive	inactive	inactive	inactive	inactive	inactive	inactive	inactive	inactive	inactive
CC(C)=CCCC(C)=CC=O	inactive	inactive	inactive	inactive	inactive	inactive	inactive	inactive	inactive	inactive	inactive	inactive	inactive	inactive	inactive	inactive
CCCCO	inactive	inactive	inactive	inactive	inactive	inactive	inactive	inactive	inactive	inactive	inactive	inactive	inactive	inactive	inactive	inactive
C=C(C)C1CCC2=CC(=O)CC(C)C2(C)C1 (stereo unspecified)		active	inactive	inactive												
CC12CCC(C1)C(C)(C)C2=O (stereo unspecified)	inactive	inactive	inactive	inactive	inactive	inactive	inactive	inactive	inactive	inactive	inactive	inactive	inactive	inactive	inactive	inactive
CC1CCC(C(C)C)C(O)C1 (stereo unspecified)	active	inactive	inactive	inactive	inactive	inactive	active	inactive	inactive	inactive	inactive	inactive	inactive	active	inactive	inactive
CC(=O)c1ccccc1	inactive		inactive		inactive	inactive	inactive	inactive	inactive	inactive	inactive	inactive	inactive	inactive	inactive	inactive
CCCCCCCCC=O									inactive							
CC12CCC(CC1)C(C)(C)O2	inactive	inactive	inactive	inactive	inactive	inactive	inactive	inactive	inactive	inactive	inactive	inactive	inactive	inactive	inactive	inactive
COc1ccccc1O	inactive	inactive	inactive	inactive	inactive	inactive	inactive	inactive	inactive	inactive	inactive	inactive	inactive	inactive	inactive	inactive
CCCCCC(C)=O	inactive				inactive	inactive	inactive	inactive	inactive	inactive	inactive	inactive	active	inactive	inactive	inactive
CC=Cc1ccc(O)c(OC)c1	active	active	active	active	inactive	inactive	inactive	inactive	inactive	inactive	inactive	inactive	inactive	inactive	inactive	inactive
C=CCSCC=C	inactive	inactive	inactive	inactive	inactive	inactive	inactive	inactive	inactive	inactive	inactive	inactive	inactive	inactive	inactive	inactive

Two compounds from above with just odorant receptor agonist call (OR8B2 (Homo sapiens)) and odorant receptor agonist call (OR8D1 (Homo sapiens)):
Structure (SMILES),odorant receptor agonist call (OR8B2 (Homo sapiens)),odorant receptor agonist call (OR8D1 (Homo sapiens))
CCC1(O)C2(C)CCC(C2)C1(C)C (stereo unspecified),inactive,inactive
COc1cc(C=O)ccc1O,inactive,inactive
